Measured values from PubChem BioAssay AID504467 (National Center for Advancing Translational Sciences (NCATS), 2011).
The campaign covered roughly 330,000 compounds. About 7,700 (2.3%) were called active. This list was built around the results that the source calls inconclusive (neither active nor inactive); the mix of calls is not that of the screen. Calls follow the shape of the dose curve; as a rule, active = well fitted inhibition curve with a large enough effect; inconclusive = small, poorly fitted or top-dose-only effect, or effect the other way; inactive = flat fitted curve, though single readings scatter. Potencies beside an inconclusive call are fits to weak or partial responses and may not hold up.

assay: qHTS screen for small molecules that inhibit ELG1-dependent DNA repair in human embryonic kidney (HEK293T) cells expressing luciferase-tagged ELG1; conditions: HEK293T ELG1-luciferase reporter, luminescence, 16 h, DNA damage induced by 5-fluorouridine; activity change, negative = inhibition: at 46.1 µM (top of the series); also: nearly all actives have a fitted effect of over 55% in size
Method in brief: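 Step one: seed 2,000 cells per well. Step two: pin-transfer compound or DMSO alongside 5-fluorouridine. Step three: incubate 16 hr, 37 °C, 5% CO2. Step four: add ONE-Glo, wait 30 min, read luminescence.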
% is scaled to controls: 0 for no effect and ±100 for the full control effect; potency is read from the fitted curve at half-maximal effect.

| Compound | activity change, negative = inhibition | Potency |
| --- | --- | --- |
| O=C(Cn1nc(C(F)(F)F)c2c1CCC2)Nc1ccccc1C(F)(F)F | inactive: -26.7% | – |
| CNC(=S)NNC(=O)c1ccc(C(C)(C)C)cc1 | – | inconclusive: 14.6 µM [activator, partial curve] |
| COC(=O)c1ccccc1NC(=O)c1ccc2c(c1)OCCO2 | inactive: 20.6% | – |
| CC(=O)c1cccc(NC(=O)Cn2cnc(S(=O)(=O)N3CCCC3)c2)c1 | – | inconclusive: 29.1 µM [activator, partial curve, poor fit] |
| Cc1ccc(NC(=O)c2cc3ccccc3oc2=O)cc1S(=O)(=O)N(C)C | – | inconclusive: 0.073 µM [activator, full curve] |
| COCCCC1CCN(Cc2cn[nH]c2-c2cc(OC)c(OC)c(OC)c2)CC1 | – | inconclusive: 23.1 µM [activator, single point] |
| Cn1nnnc1SCc1ccc(C(=O)Nc2ccc(Br)cc2)cc1 | – | inconclusive: 10.3 µM [activator, partial curve] |
| CNC(=O)c1cc2c(s1)-c1ccccc1CC2 | – | inconclusive: 3.26 µM [activator, partial curve, poor fit] |
| CCC(=O)Nc1nc(-c2ccccc2)ns1 | – | inconclusive: 16.4 µM [activator, partial curve] |
| O=C(Cc1ccc([N+](=O)[O-])cc1)Nc1cc(C(F)(F)F)cc(C(F)(F)F)c1 | – | inconclusive: 29.1 µM [inhibitor, single point] |
| O=C(NC(=S)Nc1ccc2c(c1)OCCO2)c1cccc2ccccc12 | – | inconclusive: 18.4 µM [activator, single point] |
| Cc1ccc(NS(=O)(=O)c2ccc(-c3ccc(=O)[nH]n3)o2)cc1N(C)C | – | inconclusive: 25.9 µM [activator, single point] |
| Cn1c(=O)c2[nH]cnc2n(C)c1=O | inactive: 2.45% | – |
| COc1ccc(-c2noc(CCCC(=O)O)n2)cc1 | – | inconclusive: 14.6 µM [activator, partial curve, poor fit] |
| O=C(Nc1cccs1)NC1CCCC1 | inactive: 1.16% | – |
| CCCNC(=O)c1cn(CC)c2cc(N3CCN(C)CC3)c(F)cc2c1=O | inactive: -0.0142% | – |
| Cc1ccccc1NC(=S)NC(NC(=O)c1ccco1)C(Cl)(Cl)Cl (stereo not given) | inactive: 0.134% | – |
| COc1ccc(S(=O)(=O)Nc2cccc(C)n2)c2ccccc12 | inactive: -3.26% | – |
| O=C(CCNC(=O)c1ccc(Br)cc1)NCC1COc2ccccc2O1 (stereo not given) | – | inconclusive: 23.1 µM [activator, single point] |
| COCCNC(=O)CN1C(=O)c2cccc3cccc1c23 | – | inconclusive: 20.6 µM [activator, partial curve, poor fit] |

Part of the list above in a different format.
O=C(NC(=S)Nc1ccc2c(c1)OCCO2)c1cccc2ccccc12
  Potency: inconclusive: 18.4 µM [activator, single point]
Cn1c(=O)c2[nH]cnc2n(C)c1=O
  activity change, negative = inhibition: inactive: 2.45%
